Measurements from PubChem BioAssay AID1259415 (National Center for Advancing Translational Sciences (NCATS), 2018).
Out of some 410,000 compounds screened, about 18,000 (4.4%) were called active. The inconclusive results got no clear call from the source; some entries with a clear call stand among them for comparison. No stated cut-off is given here; in the data, active means activity change below about -60%; inconclusive means no clear call, values can overlap the other calls; inactive means above about -39%.

assay: qHTS Assay for inhibitors of the human cytomegalovirus (HCMV); details: HFF cells, HCMV-luciferase reporter, 72 h; at 57.5 µM; active compounds read low
Outline: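 Cell-based, HFFs, 1000 cells/well, 16 h 37C; cpds in DMSO + HCMV-luc, MOI 1 PFU/cell; 72 h 37C; OneGlo luminescence after 5 min RT; norm. to buffer vs Salinomycin 10uM.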
On the % scale 0 is the no-effect control and ±100 the full control effect.

| SMILES | activity change, negative = inhibition |
| --- | --- |
| Cc1ccc(NC(=O)Nc2ccc3nc(N4CCN(C)CC4)cc(C)c3c2)cc1C | active: -100% |
| COc1ccc(C(CC(=O)N2CCOCC2)c2c(OC)cc(OC)c3ccc(=O)oc23)cc1 (stereo not given) | inactive: 10.8% |
| C[C@@H](NC(=O)CN(c1ccccc1)S(=O)(=O)N(C)C)c1ccccc1 | active: -105% |
| O=C1C2C3C=CC(CC3)C2C(=O)N1c1ccccc1F (stereo not given) | active: -62.7% |
| CCCn1c(N)c(N(CCOC)C(=O)c2ccc([N+](=O)[O-])cc2Cl)c(=O)[nH]c1=O | inconclusive: -48.6% |
| CCOc1cc(/C=C(/C#N)C(=O)Nc2ccc(OC)cc2)ccc1OCc1ccc(C(=O)O)cc1 | inconclusive: -40.6% |
| Cc1cccc(N2CCN(C(=O)C3CCN(S(=O)(=O)c4cccc5nsnc45)CC3)CC2C)c1 (stereo not given) | inconclusive: -40.3% |
| c1cncc(-c2nnc(-c3cccnc3)nn2)c1 | inactive: 5.26% |
| COc1ccc(S(=O)(=O)N2CCCC(C(=O)NCc3ccncc3)C2)cc1 (stereo not given) | inconclusive: -49.3% |
| COc1cccc(C(=O)Nc2ccccc2-c2nnc(-c3ccc(C(C)(C)C)cc3)o2)c1 | inactive: -7.51% |
| O=C(NCc1cccc(F)c1F)C1CCC(=O)N(C2CC2)C1 (stereo not given) | inconclusive: -40.3% |
| CCOc1ccc2[nH]c(=O)c(CN(Cc3cccs3)Cc3nnnn3C(C)(C)C)cc2c1 | inconclusive: -48% |
| COc1ccc2cc(C(=O)NCc3ccccc3)c(=Nc3ccc(C(=O)O)cc3)oc2c1 | inconclusive: -41.7% |
| NNc1nc(N)c2c(n1)-c1ccccc1CC21CCCC1 | inconclusive: -51.3% |
| COCCn1c(SCCCC(=O)c2ccc(Br)cc2)nnc1-c1ccncc1 | active: -70.8% |
| CC(=O)c1cc(-c2ccc(F)cc2)n(CC(=O)NCc2ccc(C)cc2)c1C | inconclusive: 0% |
| CCC(=O)Nc1nc2c(OC)ccc(C)c2s1 | inactive: 38.8% |
| O=C1N=C2SCCN2/C1=C\c1c(Cl)cccc1Cl | inconclusive: -44.8% |
| Cc1ccccc1-n1c(SC(C)C(N)=O)nnc1-c1cccnc1 (stereo not given) | inconclusive: -58.3% |
| C=C1C[C@H]2[C@@H]3CCc4cc(OC)ccc4[C@H]3CC[C@]12C | active: -69.4% |
| O=C(NCc1ccccc1)c1ccc(-c2ccc(F)c(F)c2)c2ccoc12 | inconclusive: -55.5% |
| Nc1nonc1C(=O)NCCNCc1cc(Br)ccc1OCc1ccccc1F | active: -61.6% |
| COCCC(=O)N1CCC(Oc2ccc(C(=O)N(C)CCCC3CCCC3)cc2)CC1 | inconclusive: -48.3% |
| COc1ccccc1OCC(=O)Nc1cc(-c2ccc(C)cc2)no1 | inactive: 26.2% |
| CCOC(=O)CNC(=O)CCc1nnc2ccc(N3CCC(C)CC3)nn12 | inconclusive: -42.1% |
| CC1CCN(S(=O)(=O)c2ccc3nc(N4CCN(c5ccccc5)CC4)ccc3c2)CC1 | inconclusive: 0% |
| Cc1cc(C(C)(C)C)cc(C)c1CCNC(=O)c1ccc[n+]([O-])c1 | inconclusive: -47.7% |
| COc1ccccc1-c1cnc(C(O)c2ccc(F)c(F)c2)[nH]1 (stereo not given) | inconclusive: -44.6% |

Exported bar-delimited: entries from further up
SMILES | activity change, negative = inhibition
NNc1nc(N)c2c(n1)-c1ccccc1CC21CCCC1 | inconclusive: -51.3%
Cc1cc(C(C)(C)C)cc(C)c1CCNC(=O)c1ccc[n+]([O-])c1 | inconclusive: -47.7%

Two entries from above, with bars between the fields:
SMILES | activity change, negative = inhibition
Cc1cc(C(C)(C)C)cc(C)c1CCNC(=O)c1ccc[n+]([O-])c1 | inconclusive: -47.7%
COc1ccccc1-c1cnc(C(O)c2ccc(F)c(F)c2)[nH]1 (stereo not given) | inconclusive: -44.6%

(further entries)

| SMILES | activity change, negative = inhibition |
| --- | --- |
| CCOC(=O)N1CCN(C(=O)c2cnn(-c3cccc(F)c3)c2-n2cccc2)CC1 | inconclusive: 0% |
| Cc1noc(/C=C/N(C)C)c1S(=O)(=O)N1CCC(C(=O)O)CC1 | active: -69.2% |
| COc1ccc(Nc2ncnc3ccc([N+](=O)[O-])cc23)c(OC)c1 | inconclusive: -53.9% |
| COc1cccc(CNC(=O)c2ccc(CS(=O)c3ccccc3)o2)c1 (stereo not given) | inconclusive: -45% |
| Cc1cc(CSc2ccccc2)ccc1NC(=O)c1ccc(Cl)c([N+](=O)[O-])c1 | inconclusive: -40.1% |
| CSc1ccc(CNc2nc3ccccc3n3cnnc23)cc1 | inconclusive: -42.1% |
| Cc1c(C(=O)N2CCCCCC2(C)C(=O)NCC(C)C)oc2ccccc12 (stereo not given) | inconclusive: -52.2% |
| CCCCCCC(NC(=O)Cc1ccc2ccccc2c1)C(=O)O (stereo not given) | inactive: 11.3% |
| COc1ccc(S(=O)(=O)N2CCC(C(=O)NCc3ccncc3)CC2)cc1 | inactive: -25.9% |
| O=C(NCc1ccco1)/C(=C\c1ccco1)NC(=O)c1cccs1 | inactive: -13.1% |
| CCn1cc(C(=O)O)c(=O)c2cc(F)c(N3CCN(S(=O)(=O)c4ccc(NC(=O)OC)cc4)CC3)cc21 | active: -63% |
| CC(=O)Nc1ccc(CN2C(=O)C(CCc3ccccc3)ON=C2c2cnccn2)cc1 (stereo not given) | inactive: 29.8% |
| CC(/C=N/NC(=O)C(O)c1ccccc1)=C\c1ccccc1 (stereo not given) | inconclusive: -51.8% |
| O=S1(=O)N[C@@H](Cc2ccccc2)COc2cc(N3CCC[C@@H]3CO)ccc21 | inconclusive: -47.5% |
| Cc1ccc(-n2nnnc2Sc2nc([N+](=O)[O-])nn2C)c(C)c1 | active: -70.1% |
| CCN(CC)Cc1c(O)ccc2c(=O)c(Oc3ccccc3OC)coc12 | active: -61.5% |
| CC(C)c1onc(C(=O)Nc2cccnc2Cl)c1[N+](=O)[O-] | inconclusive: -47% |
| OC(COc1ccc(Cl)cc1)CN1CCN(c2ccccn2)CC1 (stereo not given) | inconclusive: -42.3% |
| N#Cc1c(N)nc(SCC(=O)NC2CCCCC2)c(C#N)c1-c1ccc(Cl)cc1 | inconclusive: -46.7% |
| COc1ccc(OCc2cc(C(=O)N3CCCCCCC3)no2)c(Cl)c1 | inactive: 42.1% |
| CC1CC(C)CN(CCOc2ccc(Cl)cc2Cl)C1 (stereo not given) | inactive: -15.8% |
| CCCN(C)C1CN(Cc2cn(Cc3ccc(C)cc3)nn2)S(=O)(=O)C1 (stereo not given) | inactive: 24.1% |
| Cc1cn([C@H]2C[C@H](N=[N+]=[N-])[C@@H](CO)O2)c(=O)[nH]c1=O | inconclusive: -48.7% |
| COc1ccc(-[n+]2c(-c3ccccc3)cc(-c3ccccc3)cc2-c2ccccc2)cc1 | active: -97.3% |
| COc1ccc(-n2c(=S)[nH]c3cc(C(=O)NCc4ccccc4OC)ccc3c2=O)c(OC)c1 | inconclusive: -42.5% |
| COc1cc(/C=C(\C#N)c2nc3ccccc3[nH]2)c([N+](=O)[O-])cc1OCc1ccccc1 | inconclusive: -51.7% |
| O=C(Cn1c(SCCOc2ccccc2Cl)nc2ccccc21)N1CCCCC1 | inactive: -14.6% |
